Measurements reported in PubChem BioAssay AID720505 (Drosophila RNAi Screening Center, 2013).
Aim: 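Fly regulators or components of the CRAC channel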 (primary screen). System: Drosophila S2R+ cells. Reagent: long dsRNA against Drosophila genes. Treatment: thapsigargin (2 µM) in calcium-free buffer to empty internal stores, then 2 mM calcium added back. Read-out: 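Fluo-4 signal in 384-well plates read on a FLIPR after thapsigargin (2 µM, calcium-free) store depletion and 2 mM calcium add-back; unnormalised mean endpoint per well; screen run twice, selected wells retested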. Scale: calcium signal and retest calcium signal: higher = more calcium entry after store depletion. Hit rule: 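About 1500 genes called as lowering calcium entry, by varying amounts, judged against per-plate control wells with STIM1 as positive and Rho1 as negative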. Calls: active = called as lowering calcium entry; inactive = not called.
The screen tested about 20,000 reagents; this is an unselected part of those that have a named target and a result. Of all reagents, about 2,100 (10%) are marked active. 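Raw plate signals without normalisation; calls rest on control-based scores that were not deposited; replicate 2 separates called from uncalled poorly.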 A number with no mark means an inactive call. Reagents against one gene are numbered here. A plus sign joins genes that one reagent is predicted to hit. The record does not give: the amount of reagent, the time to read-out.

| gene | reagent no. | calcium signal, replicate 1 | calcium signal, replicate 2 | retest calcium signal, replicate 1 | retest calcium signal, replicate 2 |
| --- | --- | --- | --- | --- | --- |
| Cpr78E | 1 | 117 | 155 | – | – |
| nwk | 1 | 74.6 (active) | 109 | – | – |
| nwk | 2 | 97.5 | 97 | – | – |
| Cht5 | 1 | 72.6 (active) | 127 | 83.3 | 92.3 |
| Dyrk2 | 1 | 104 | 130 | – | – |
| CG14478 | 1 | 122 | 152 | – | – |
| CG4866 | 1 | 159 | 128 | – | – |
| MED4 | 1 | 153 | 106 | – | – |
| Socs36E | 1 | 78.7 | 124 | 79.5 | 89.1 |
| SkpC | 1 | 135 | 102 | – | – |
| ATP7 | 1 | 72 (active) | 131 | – | – |
| CG8012 | 1 | 74.9 | 90 | – | – |
| SiaT | 1 | 117 | 194 | – | – |
| CG31908 | 1 | 66.2 | 156 | – | – |
| CG31908 | 2 | 99.4 | 98.8 | – | – |
| CG10660 | 1 | 69.5 (active) | 81.7 | – | – |
| Ubc10 | 1 | 119 | 120 | – | – |
| mle | 1 | 98.9 | 148 | – | – |
| Ctl2 | 1 | 99 | 126 | – | – |
| CG12728 | 1 | 101 | 122 | – | – |
| Gr98c | 1 | 123 | 252 | – | – |
| trr | 1 | 139 | 111 | – | – |
| trr | 2 | 114 | 152 | – | – |
| dmrt99B | 1 | 233 | 220 | – | – |
| dmrt99B | 2 | 115 | 82.2 | – | – |
| CG42568 + DnaJ-60 | 1 | 97.1 | 115 | – | – |
| CG42568 + DnaJ-60 | 2 | 184 | 79.7 | – | – |
| AANATL5 | 1 | 121 | 138 | – | – |
| CG4161 | 1 | 154 | 84.3 | – | – |
| CG12811 | 1 | 105 | 80.6 | – | – |
| CG12081 | 1 | 99.6 | 101 | – | – |
| RpS7 | 1 | 62.6 (active) | 61.3 | – | – |
| Flacc | 1 | 206 | 142 | – | – |
| B4 | 1 | 85.5 | 123 | – | – |
| B4 | 2 | 91.6 | 109 | – | – |
| VhaM9.7-a | 1 | 98.2 | 97.2 | – | – |
| bur | 1 | 112 | 129 | – | – |
| TfIIA-L | 1 | 101 | 88.7 | – | – |
| thoc5 | 1 | 120 | 94.6 | – | – |
| pds5 | 1 | 171 | 135 | – | – |
| Rab39 | 1 | 181 | 82.7 | – | – |
| CG18231 | 1 | 72 | 182 | – | – |
| Dbct | 1 | 146 | 109 | – | – |
| Dys | 1 | 147 | 182 | – | – |
| Dys | 2 | 167 | 151 | – | – |
| Dys | 3 | 179 | 142 | – | – |
| Dys | 4 | 142 | 173 | – | – |
| Dys | 5 | 142 | 144 | – | – |
| Dbp80 | 1 | 109 | 200 | – | – |
| CG30058 + CG34235 + CG34312 | 1 | 92.5 | 113 | – | – |
| TwdlE | 1 | 98.5 | 150 | – | – |
| mAcon2 | 1 | 88.2 | 115 | – | – |
| brun | 1 | 98 | 98.5 | – | – |
| CG14131 | 1 | 37.9 | 74.2 | – | – |
| CG7564 | 1 | 86.8 | 162 | – | – |
| Mau2 | 1 | 150 | 148 | – | – |

In a second layout: 5 of the entries above
{"gene":"TwdlE","reagent no.":1,"calcium signal, replicate 1":98.5,"calcium signal, replicate 2":150}
{"gene":"mAcon2","reagent no.":1,"calcium signal, replicate 1":88.2,"calcium signal, replicate 2":115}
{"gene":"brun","reagent no.":1,"calcium signal, replicate 1":98,"calcium signal, replicate 2":98.5}
{"gene":"CG14131","reagent no.":1,"calcium signal, replicate 1":37.9,"calcium signal, replicate 2":74.2}
{"gene":"CG7564","reagent no.":1,"calcium signal, replicate 1":86.8,"calcium signal, replicate 2":162}
